Measured values: the supplement of paper PMC12823440, “Inhibitors supercharge kinase turnover through native proteolytic circuits” (Nature, 2025)
Structures can show the parent of a compound that is named as a salt. Some of the results follow. Hit calls seldom repeat between salt and free forms of one compound.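 Kinases, fused to nanoluciferase, were expressed in K562 cells; luminescence was measured every 4 h from 2 to 18 h as percent of control (DMSO = 100%, positive control = 0%). A time point is decreased if signal falls significantly (2 sigma). Hits were called by the authors by a rule that is not shown; the count of time points alone does not decide it.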

Chains of the proteins cited; added tags and fusions are not shown. Lines headed by an entry give the natural chain unless they say otherwise; changes in a name come on top.
UniProt Q05397, whole entry, looked up: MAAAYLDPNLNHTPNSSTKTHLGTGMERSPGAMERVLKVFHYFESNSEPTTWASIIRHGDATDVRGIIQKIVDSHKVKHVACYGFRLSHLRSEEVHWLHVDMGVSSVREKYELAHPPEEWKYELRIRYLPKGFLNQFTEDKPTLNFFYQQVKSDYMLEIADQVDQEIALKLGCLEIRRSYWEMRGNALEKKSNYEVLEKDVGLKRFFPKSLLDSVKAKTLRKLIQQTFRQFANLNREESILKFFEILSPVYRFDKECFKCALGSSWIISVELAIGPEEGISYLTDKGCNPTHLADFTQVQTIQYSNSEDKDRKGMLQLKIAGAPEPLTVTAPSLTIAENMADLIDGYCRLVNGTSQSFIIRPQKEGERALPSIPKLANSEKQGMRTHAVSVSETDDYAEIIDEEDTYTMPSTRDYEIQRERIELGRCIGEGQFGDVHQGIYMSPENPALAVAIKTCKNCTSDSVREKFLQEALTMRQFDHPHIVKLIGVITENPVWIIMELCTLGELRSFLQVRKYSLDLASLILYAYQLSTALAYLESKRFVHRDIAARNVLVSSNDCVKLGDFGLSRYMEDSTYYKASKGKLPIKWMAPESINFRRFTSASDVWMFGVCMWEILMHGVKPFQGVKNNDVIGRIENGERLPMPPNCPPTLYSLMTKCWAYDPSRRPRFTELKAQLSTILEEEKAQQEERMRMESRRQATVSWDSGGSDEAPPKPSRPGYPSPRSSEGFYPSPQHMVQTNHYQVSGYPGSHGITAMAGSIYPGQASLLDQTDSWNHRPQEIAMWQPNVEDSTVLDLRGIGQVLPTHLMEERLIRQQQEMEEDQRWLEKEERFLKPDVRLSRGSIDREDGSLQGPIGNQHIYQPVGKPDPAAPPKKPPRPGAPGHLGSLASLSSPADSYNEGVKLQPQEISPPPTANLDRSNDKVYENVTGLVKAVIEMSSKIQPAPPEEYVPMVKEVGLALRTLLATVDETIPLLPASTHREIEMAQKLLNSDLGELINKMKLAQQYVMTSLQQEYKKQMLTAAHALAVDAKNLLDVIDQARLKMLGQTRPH
UniProt Q14289, whole entry, looked up: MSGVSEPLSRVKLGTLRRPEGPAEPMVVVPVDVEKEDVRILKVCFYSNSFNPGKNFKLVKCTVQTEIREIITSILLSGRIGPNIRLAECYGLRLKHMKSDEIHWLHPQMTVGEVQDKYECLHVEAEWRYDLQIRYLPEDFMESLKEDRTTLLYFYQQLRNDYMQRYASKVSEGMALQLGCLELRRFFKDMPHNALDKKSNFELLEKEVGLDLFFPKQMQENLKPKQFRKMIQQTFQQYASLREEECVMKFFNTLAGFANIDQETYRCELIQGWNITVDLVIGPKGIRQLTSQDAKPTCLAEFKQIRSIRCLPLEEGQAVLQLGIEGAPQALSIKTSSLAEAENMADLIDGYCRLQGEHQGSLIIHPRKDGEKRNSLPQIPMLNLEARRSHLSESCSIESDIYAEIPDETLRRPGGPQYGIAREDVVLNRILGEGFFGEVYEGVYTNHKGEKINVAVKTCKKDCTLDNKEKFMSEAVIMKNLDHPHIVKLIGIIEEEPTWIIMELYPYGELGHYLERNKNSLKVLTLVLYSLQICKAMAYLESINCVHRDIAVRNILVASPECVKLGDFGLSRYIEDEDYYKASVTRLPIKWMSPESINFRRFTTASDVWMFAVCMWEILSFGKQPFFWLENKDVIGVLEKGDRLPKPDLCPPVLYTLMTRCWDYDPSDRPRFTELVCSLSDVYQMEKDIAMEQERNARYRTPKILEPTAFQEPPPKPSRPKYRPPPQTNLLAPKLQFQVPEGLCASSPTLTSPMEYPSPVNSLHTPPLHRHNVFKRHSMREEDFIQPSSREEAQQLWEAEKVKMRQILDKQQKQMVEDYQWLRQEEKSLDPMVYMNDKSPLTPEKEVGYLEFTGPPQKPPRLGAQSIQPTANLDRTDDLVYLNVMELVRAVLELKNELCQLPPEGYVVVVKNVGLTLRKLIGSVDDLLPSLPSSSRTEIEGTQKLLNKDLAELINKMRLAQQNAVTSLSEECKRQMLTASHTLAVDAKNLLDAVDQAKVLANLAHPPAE
UniProt P07949, whole entry, looked up: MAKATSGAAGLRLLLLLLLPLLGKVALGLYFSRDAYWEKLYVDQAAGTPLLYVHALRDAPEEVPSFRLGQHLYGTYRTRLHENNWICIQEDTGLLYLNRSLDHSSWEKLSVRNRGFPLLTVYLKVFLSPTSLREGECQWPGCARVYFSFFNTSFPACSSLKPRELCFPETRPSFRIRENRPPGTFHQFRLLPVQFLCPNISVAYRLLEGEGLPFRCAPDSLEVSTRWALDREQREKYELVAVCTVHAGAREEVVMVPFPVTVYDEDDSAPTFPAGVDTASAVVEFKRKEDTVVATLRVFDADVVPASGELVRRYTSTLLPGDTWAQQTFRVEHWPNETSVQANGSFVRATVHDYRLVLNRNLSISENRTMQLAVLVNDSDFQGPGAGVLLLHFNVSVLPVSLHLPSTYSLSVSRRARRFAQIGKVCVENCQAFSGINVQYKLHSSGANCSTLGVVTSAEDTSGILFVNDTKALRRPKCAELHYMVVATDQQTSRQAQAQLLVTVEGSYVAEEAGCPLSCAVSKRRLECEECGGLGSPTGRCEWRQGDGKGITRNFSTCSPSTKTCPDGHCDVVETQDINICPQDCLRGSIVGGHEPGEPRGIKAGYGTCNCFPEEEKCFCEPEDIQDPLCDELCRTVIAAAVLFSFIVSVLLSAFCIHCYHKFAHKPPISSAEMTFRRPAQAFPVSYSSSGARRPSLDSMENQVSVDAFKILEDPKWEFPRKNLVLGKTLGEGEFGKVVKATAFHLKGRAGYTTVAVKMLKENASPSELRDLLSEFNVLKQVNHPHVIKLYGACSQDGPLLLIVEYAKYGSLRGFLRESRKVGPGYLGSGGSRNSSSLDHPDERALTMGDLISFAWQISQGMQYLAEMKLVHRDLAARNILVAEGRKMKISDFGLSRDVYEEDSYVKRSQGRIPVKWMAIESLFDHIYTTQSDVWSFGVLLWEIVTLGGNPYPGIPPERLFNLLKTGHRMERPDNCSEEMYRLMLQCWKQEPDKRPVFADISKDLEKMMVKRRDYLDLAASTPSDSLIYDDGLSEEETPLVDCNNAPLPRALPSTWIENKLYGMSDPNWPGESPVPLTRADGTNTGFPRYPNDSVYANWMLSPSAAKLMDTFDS
UniProt Q13546: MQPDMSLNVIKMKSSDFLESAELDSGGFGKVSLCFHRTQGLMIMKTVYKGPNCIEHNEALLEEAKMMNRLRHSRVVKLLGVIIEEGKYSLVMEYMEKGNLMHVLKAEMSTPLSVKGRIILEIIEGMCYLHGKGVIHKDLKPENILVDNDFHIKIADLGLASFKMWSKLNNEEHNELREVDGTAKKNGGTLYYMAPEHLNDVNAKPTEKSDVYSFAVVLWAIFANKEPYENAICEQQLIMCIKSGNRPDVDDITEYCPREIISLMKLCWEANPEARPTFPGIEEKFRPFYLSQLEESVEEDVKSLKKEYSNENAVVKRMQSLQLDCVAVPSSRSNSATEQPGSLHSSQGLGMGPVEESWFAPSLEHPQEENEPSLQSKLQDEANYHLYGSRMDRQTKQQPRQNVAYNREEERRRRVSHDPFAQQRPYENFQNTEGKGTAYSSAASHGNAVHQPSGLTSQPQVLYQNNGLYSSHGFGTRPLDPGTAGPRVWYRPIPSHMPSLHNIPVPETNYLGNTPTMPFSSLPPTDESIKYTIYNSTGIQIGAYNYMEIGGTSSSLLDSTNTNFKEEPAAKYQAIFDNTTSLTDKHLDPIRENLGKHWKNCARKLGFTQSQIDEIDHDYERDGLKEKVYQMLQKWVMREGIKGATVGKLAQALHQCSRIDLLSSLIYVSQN
UniProt Q9NYA1, whole entry: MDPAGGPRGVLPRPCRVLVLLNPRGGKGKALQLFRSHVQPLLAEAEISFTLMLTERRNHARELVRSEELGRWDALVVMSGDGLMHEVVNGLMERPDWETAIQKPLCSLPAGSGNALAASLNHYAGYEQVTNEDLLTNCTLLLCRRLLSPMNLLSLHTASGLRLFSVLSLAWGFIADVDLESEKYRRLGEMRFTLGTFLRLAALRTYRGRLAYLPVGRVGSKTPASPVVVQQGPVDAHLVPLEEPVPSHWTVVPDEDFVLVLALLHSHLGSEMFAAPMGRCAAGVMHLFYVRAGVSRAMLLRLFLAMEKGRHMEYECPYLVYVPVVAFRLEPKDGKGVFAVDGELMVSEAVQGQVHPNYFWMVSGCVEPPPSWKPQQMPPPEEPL
UniProt P29597: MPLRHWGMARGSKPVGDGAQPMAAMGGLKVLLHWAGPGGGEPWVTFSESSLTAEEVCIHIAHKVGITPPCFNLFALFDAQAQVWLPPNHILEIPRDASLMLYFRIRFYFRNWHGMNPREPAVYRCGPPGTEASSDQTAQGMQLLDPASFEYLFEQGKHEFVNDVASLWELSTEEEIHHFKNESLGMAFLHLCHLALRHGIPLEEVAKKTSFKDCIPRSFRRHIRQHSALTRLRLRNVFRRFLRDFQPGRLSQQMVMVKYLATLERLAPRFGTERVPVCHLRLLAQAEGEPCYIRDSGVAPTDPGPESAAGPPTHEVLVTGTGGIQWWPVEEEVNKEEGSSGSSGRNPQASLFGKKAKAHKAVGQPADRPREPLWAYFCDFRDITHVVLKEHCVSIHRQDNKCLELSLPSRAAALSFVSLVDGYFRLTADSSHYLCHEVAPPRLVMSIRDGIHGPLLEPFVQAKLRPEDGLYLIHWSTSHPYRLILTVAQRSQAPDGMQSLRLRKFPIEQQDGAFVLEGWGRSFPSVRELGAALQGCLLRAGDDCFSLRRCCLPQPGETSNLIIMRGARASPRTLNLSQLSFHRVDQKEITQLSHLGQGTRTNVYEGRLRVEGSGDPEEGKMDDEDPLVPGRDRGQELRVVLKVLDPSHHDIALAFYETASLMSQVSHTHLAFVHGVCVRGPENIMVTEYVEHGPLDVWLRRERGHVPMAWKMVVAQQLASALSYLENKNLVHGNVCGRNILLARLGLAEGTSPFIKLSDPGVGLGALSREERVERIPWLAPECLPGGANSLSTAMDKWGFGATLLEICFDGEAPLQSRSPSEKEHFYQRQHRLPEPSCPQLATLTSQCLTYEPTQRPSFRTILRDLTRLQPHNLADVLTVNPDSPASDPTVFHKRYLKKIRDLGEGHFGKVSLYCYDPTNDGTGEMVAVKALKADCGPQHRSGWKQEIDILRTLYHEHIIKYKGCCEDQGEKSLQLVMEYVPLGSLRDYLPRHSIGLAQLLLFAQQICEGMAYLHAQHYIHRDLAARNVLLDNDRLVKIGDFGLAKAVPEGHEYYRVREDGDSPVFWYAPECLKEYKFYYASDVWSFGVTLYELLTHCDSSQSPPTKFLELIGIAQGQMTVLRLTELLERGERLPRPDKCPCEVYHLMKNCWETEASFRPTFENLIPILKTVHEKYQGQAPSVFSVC
UniProt Q6PHR2: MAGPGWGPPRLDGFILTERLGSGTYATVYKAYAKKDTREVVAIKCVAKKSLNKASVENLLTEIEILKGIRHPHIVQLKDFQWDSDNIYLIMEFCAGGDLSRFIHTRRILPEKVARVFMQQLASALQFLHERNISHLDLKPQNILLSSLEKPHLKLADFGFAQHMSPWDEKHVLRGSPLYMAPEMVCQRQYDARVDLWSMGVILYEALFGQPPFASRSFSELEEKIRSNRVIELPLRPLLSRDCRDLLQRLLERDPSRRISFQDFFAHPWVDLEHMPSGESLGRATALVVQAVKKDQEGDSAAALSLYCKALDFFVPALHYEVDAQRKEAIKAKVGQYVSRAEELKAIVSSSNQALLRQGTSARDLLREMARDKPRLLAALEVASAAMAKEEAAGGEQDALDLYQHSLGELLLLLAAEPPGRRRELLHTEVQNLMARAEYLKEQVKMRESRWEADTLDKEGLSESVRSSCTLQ

Tests used:
Assay in all cases: number of time points (of 5) at which kinase-Nluc abundance scored as decreased, DMSO-normalised (count); higher = more persistent destabilization
Conditions in all cases: K562; 2-18 h
PRKCA = PRKCA (UniProt P17252)
PTK2 = PTK2 (UniProt Q05397)
PTK2B = PTK2B (UniProt Q14289)
RAF1 = RAF1 (UniProt P04049)
[1] = target: RAF1_S257L (clone: RAF1_mut) (UniProt P04049)
RET = RET (UniProt P07949)
[2] = target: RET_M918T (clone: RET_mut) (UniProt P07949)
RIOK1 = RIOK1 (UniProt Q9BRS2)
RIPK1 = RIPK1 (UniProt Q13546)
RIPK2 = RIPK2 (UniProt O43353)
ROR2 = ROR2 (UniProt Q01974)
RPS6KA1 = RPS6KA1 (UniProt Q15418)
SPHK1 = SPHK1 (UniProt Q9NYA1)
SRC = SRC (UniProt P12931)
STK24 = STK24 (UniProt Q9Y6E0)
STK38 = STK38 (UniProt Q15208)
SYK = SYK (UniProt P43405)
TEC = TEC (UniProt P42680)
TYK2 = TYK2 (UniProt P29597)
ULK3 = ULK3 (UniProt Q6PHR2)

Measured: number of time points

CN(c1ccc(NC(=O)Nc2ccc(OC(F)(F)F)cc2)cc1)c1ccnc(Nc2cccc(S(N)(=O)=O)c2)n1 (2.5 µM)
2: RIPK2 | TEC
3: PRKCA | PTK2 | RAF1 | [1] | RET | RIPK1 | TYK2
1: PTK2B | [2] | ROR2 | STK38
0: RIOK1 | RPS6KA1 | SPHK1 | SRC | STK24 | SYK
4: ULK3

CC(C)(C[C@H](N)C(=O)O)C(F)F [NV-5138 (hydrochloride)] (10 µM)
0: PRKCA | PTK2 | PTK2B | RAF1 | [1] | RET | [2] | RIOK1 | RIPK1 | RIPK2 | ROR2 | RPS6KA1 | SPHK1 | SRC | STK24 | STK38 | SYK | TEC | TYK2 | ULK3

NC(=S)n1[nH]c(-c2ccc([N+](=O)[O-])cc2)c(N=Nc2cccc(Cl)c2)c1=O (2.5 µM)
1: PTK2 | SPHK1
0: PRKCA | PTK2B | RAF1 | [1] | RET | [2] | RIOK1 | RIPK1 | RIPK2 | ROR2 | RPS6KA1 | SRC | STK24 | STK38 | SYK | TEC | TYK2 | ULK3

Nc1ncnc2c1c(COc1cccc(Cl)c1)nn2C1CCOCC1 (10 µM)
0: PRKCA | PTK2 | PTK2B | RAF1 | [1] | RET | [2] | RIOK1 | RIPK1 | RIPK2 | ROR2 | RPS6KA1 | SPHK1 | SRC | STK24 | STK38 | SYK | TEC | TYK2 | ULK3

CCCCCCCC/C=C\CCCCCCCCCCCC(=O)O [Erucic acid] (10 µM)
0: PRKCA | PTK2 | PTK2B | RAF1 | [1] | RET | [2] | RIOK1 | RIPK1 | RIPK2 | ROR2 | RPS6KA1 | SPHK1 | SRC | STK24 | STK38 | SYK | TEC | TYK2 | ULK3

NC(=O)N1CCC(CC(=O)N2CCC([C@H]3c4ncc(Br)cc4CCc4cc(Cl)cc(Br)c43)CC2)CC1 [Lonafarnib] (2.5 µM)
0: PRKCA | PTK2 | PTK2B | RAF1 | [1] | RET | [2] | RIOK1 | RIPK1 | RIPK2 | ROR2 | RPS6KA1 | SPHK1 | SRC | STK24 | STK38 | SYK | TEC | TYK2 | ULK3

O=c1cc(N2CCOCC2)nc2c3ccccc3ccn12 [Compound 401] (10 µM)
0: PRKCA | PTK2 | PTK2B | RAF1 | RET | [2] | RIOK1 | RIPK1 | RIPK2 | ROR2 | RPS6KA1 | SPHK1 | SRC | STK24 | STK38 | SYK | TEC | TYK2 | ULK3
3: [1]

C[C@@H]1CN(c2cc(-c3n[nH]c4ccc(OC5(C)CC5)cc34)ncn2)C[C@H](C)O1 (10 µM)
0: PRKCA | PTK2 | PTK2B | RAF1 | [1] | RET | [2] | RIOK1 | RIPK1 | RIPK2 | ROR2 | RPS6KA1 | SPHK1 | SRC | STK24 | STK38 | SYK | TEC | TYK2 | ULK3

C[C@@H]1O[C@@H](O[C@@H]2[C@@H](O)[C@H](OCCc3ccc(O)c(O)c3)O[C@H](CO)[C@H]2OC(=O)/C=C/c2ccc(O)c(O)c2)[C@H](O)[C@H](O)[C@H]1O [Verbascoside] (10 µM)
0: PRKCA | PTK2 | PTK2B | RAF1 | [1] | RET | [2] | RIOK1 | RIPK1 | RIPK2 | ROR2 | RPS6KA1 | SPHK1 | SRC | STK24 | STK38 | SYK | TEC | TYK2 | ULK3

CC[C@@](C)(Nc1ccnc(-c2c[nH]c3ncccc23)n1)C(=O)NCC(F)(F)F [Decernotinib] (10 µM)
0: PRKCA | PTK2 | PTK2B | RAF1 | [1] | RET | [2] | RIOK1 | RIPK1 | RIPK2 | ROR2 | RPS6KA1 | SPHK1 | SRC | STK24 | STK38 | SYK | TEC | TYK2 | ULK3

c1ccc(-c2nc3c(c(-n4ccc5cnccc54)n2)CCC3)nc1 (10 µM)
0: PRKCA | PTK2 | PTK2B | RAF1 | [1] | RET | [2] | RIOK1 | RIPK1 | RIPK2 | ROR2 | RPS6KA1 | SPHK1 | SRC | STK24 | STK38 | SYK | TEC | TYK2 | ULK3

Two records picked at random from those above, as already listed:
C[C@@H]1O[C@@H](O[C@@H]2[C@@H](O)[C@H](OCCc3ccc(O)c(O)c3)O[C@H](CO)[C@H]2OC(=O)/C=C/c2ccc(O)c(O)c2)[C@H](O)[C@H](O)[C@H]1O [Verbascoside] (10 µM)
0: PRKCA | PTK2 | PTK2B | RAF1 | [1] | RET | [2] | RIOK1 | RIPK1 | RIPK2 | ROR2 | RPS6KA1 | SPHK1 | SRC | STK24 | STK38 | SYK | TEC | TYK2 | ULK3

CC[C@@](C)(Nc1ccnc(-c2c[nH]c3ncccc23)n1)C(=O)NCC(F)(F)F [Decernotinib] (10 µM)
0: PRKCA | PTK2 | PTK2B | RAF1 | [1] | RET | [2] | RIOK1 | RIPK1 | RIPK2 | ROR2 | RPS6KA1 | SPHK1 | SRC | STK24 | STK38 | SYK | TEC | TYK2 | ULK3

Following part.

C[C@H](Nc1ncnc2nc[nH]c12)c1cc2cccc(Cl)c2c(=O)n1-c1ccccc1 [Duvelisib] (10 µM)
0: PRKCA | PTK2 | PTK2B | RAF1 | [1] | RET | [2] | RIOK1 | RIPK1 | RIPK2 | ROR2 | RPS6KA1 | SPHK1 | SRC | STK24 | STK38 | SYK | TEC | TYK2 | ULK3
